One molecule from patent US20200199212A1 can be followed below.

Results are given in words; binding and its absence hold for the method and conditions named. Binding seen in cells or lysates may run through a third protein. Some results given as binding are weak or reduced against the parent protein; the word gives no strength. Sequences can lack the tags named with a protein.

Test [1] deals with T1, ANGPTL3 fusion protein after purification (SEQ ID NO:19) (human) (UniProt Q9Y5C1).
T1 sequence: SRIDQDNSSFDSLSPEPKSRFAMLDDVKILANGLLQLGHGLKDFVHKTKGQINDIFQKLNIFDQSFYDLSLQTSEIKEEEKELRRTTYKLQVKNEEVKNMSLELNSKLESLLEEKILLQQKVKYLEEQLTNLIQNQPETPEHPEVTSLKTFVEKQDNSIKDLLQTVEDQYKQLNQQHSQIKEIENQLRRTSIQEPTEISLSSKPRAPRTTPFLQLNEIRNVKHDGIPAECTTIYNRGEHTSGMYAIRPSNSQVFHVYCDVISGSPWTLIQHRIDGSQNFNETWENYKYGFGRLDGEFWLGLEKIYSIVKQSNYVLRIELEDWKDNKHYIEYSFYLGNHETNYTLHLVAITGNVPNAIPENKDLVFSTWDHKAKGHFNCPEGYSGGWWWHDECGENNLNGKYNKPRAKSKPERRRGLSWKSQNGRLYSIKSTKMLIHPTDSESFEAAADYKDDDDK
Put plainly: co-purification (Ni-NTA by the His tag of the HSA-ANGPTL8 fusion, Superdex 200, PreScission cleavage, second Superdex 200), then SDS-PAGE on a 4-20% TG TGX gel stained with Coomassie.

For test [2], the target named is T1, ANGPTL3 fusion protein after purification (SEQ ID NO:19) (human). Put plainly: co-expression, co-purification (Ni-NTA, size exclusion), SDS-PAGE.

B1: ANGPTL8 fusion protein after purification and PreScission cleavage (SEQ ID NO:20) (ligand)
chain: APMGGPELAQHEELTLLFHGTLQLGQALNGVYRTTEGRLTKARNSLGLYGRTIELLGQEVSRGRDAAQELRASLLETQMEEDILQLQAEATAEVLGEVAQAQKVLRDSVQRLEVQLRSAWLGPAYREFEVLKAHADKQSHILWALTGHVQRQRREMVAQQHRLRQIQERLHTAALPA
Regarding B1, the binding result in test [1] and in test [2] was “binds” in each case.
